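Primary screen of methionyl-tRNA synthetase; the read-out is not stated. Target: Methionyl-tRNA synthetase (putative), Leishmania donovani (UniProt E9BF75). The test concentration is not given. The values are filed as inhibition. About 68,000 compounds were tested under these conditions; 0.035% (about 24) showed 50% or more at least once.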

The chains behind the UniProt entries cited, without tags or fusion partners.
UniProt E9BF75, entry or part of it: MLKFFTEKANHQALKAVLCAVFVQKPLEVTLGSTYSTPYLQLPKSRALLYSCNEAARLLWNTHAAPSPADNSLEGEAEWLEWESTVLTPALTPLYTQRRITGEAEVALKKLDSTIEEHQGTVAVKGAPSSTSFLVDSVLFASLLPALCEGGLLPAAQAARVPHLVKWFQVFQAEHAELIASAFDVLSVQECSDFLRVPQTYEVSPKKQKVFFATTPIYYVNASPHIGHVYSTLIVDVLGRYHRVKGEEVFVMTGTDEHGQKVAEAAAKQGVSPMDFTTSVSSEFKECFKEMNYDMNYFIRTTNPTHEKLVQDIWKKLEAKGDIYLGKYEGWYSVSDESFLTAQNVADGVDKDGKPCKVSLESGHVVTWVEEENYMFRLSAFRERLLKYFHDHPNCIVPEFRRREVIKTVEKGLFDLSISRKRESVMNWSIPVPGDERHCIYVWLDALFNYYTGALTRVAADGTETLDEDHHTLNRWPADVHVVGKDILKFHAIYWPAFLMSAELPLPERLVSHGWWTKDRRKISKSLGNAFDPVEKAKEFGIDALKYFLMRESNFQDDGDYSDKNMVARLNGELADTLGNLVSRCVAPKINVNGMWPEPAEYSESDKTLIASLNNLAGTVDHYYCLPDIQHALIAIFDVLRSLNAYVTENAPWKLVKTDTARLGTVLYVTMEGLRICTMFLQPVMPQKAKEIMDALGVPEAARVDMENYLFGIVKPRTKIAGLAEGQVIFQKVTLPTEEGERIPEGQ

Results are percentages, as filed. The controls that fix the scale are not given in the record; negative values are as filed. Compounds were drawn at random from those tested, without regard to their results.

* CN(CCO)C[C@@H]1CN(C2CCN(c3ccccc3Cl)CC2)C[C@@H]1CO | 11.2%
* Cc1ccc(CN(CC(=O)N2CCOC(C)C2)C2CC2)cc1 (stereo not shown) | 15.47%
* CC(=O)N1CCc2nc(C3CCN(C(=O)c4ccccc4)C3)ncc2C1 (stereo not shown) | 18.01%
* O=C1[C@H]2CN(S(=O)(=O)c3ccccc3)C[C@H]2CN1Cc1cccnc1 | 4.194%
* CCc1nc2n(n1)CC(Nc1cc(C)nc3ncnn13)CC2 (stereo not shown) | 11.33%
* CC(C)CCN(C(=O)CCn1cc(S(N)(=O)=O)cn1)C1CC1 | 11.11%
* Cc1nnc([C@@]23CCO[C@@H]2CCN(S(C)(=O)=O)C3)o1 | 5.839%
* CNc1cc(CNC(=O)c2cccnc2)nc(-c2ccncc2)n1 | 14.35%
* CC(=O)c1c(C)nn(S(=O)(=O)c2ccccc2)c1C | -37.57%
* Clc1ccc2oc(C3CCN(Cc4cccnc4)CC3)nc2c1 | 2.536%
* Cc1nc2ccc(CN3CC4(CCOC4)CCC3=O)cc2[nH]1 (stereo not shown) | 10.65%
* O=C(NCCNc1ccccn1)Nc1cc(C(F)(F)F)c[nH]c1=O | 15.56%
* Cc1cc(CN(C)C(=O)c2ccc(Cl)c(S(C)(=O)=O)c2)no1 | 9.091%
* CN1CCCC2(CCN(S(=O)(=O)c3ccc(-c4cnco4)s3)C2)C1=O (stereo not shown) | 23.03%
* CCOC1COC2(CCN(c3ncc(C)cn3)CC2)C1 (stereo not shown) | 16.39%
* CC(=O)c1cccc(OCCCC(=O)N(C)CCC(F)(F)F)c1 | 4.891%
* CCN(CC)CC[C@H]1CN(C(=O)CC(C)(C)C)CC[C@H]1CC(=O)O | 2.198%
* CC[C@H]1CN2CC[C@H]1C[C@@H]2CNC(=O)Nc1cccc(C#N)c1 | 8.791%
* Cc1ccc(NC2CCN(C(=O)c3c(C)oc(C)c3C)CC2)nn1 | 14.21%
* O=C1NCCN1C(CNS(=O)(=O)C1CC1)Cc1cccc(F)c1 (stereo not shown) | 19.83%
* COc1ccc(CC(=O)Nc2ccc3ncn(C)c(=O)c3c2)cc1 | 14.87%
* CCCn1cc(C(=O)NCCc2ccc3c(c2)OCO3)c(C)n1 | 9.507%
* O=C(Cc1cccnc1)N1C[C@H]2CC[C@@H]1CN(Cc1ccc(F)cc1)C2 | 1.6%
* c1cnn(CC2CN(Cc3ccc(-n4ccnc4)cc3)CCO2)c1 (stereo not shown) | -7.981%
* CC(Cn1ccnc1)NCc1ccc2nonc2c1 (stereo not shown) | 10.67%
* CN(Cc1ccncc1)C(CO)c1cccc(F)c1 (stereo not shown) | 7.396%
* Cn1ccnc1C(=O)N1CCCC1c1ccc(C(=O)N2CCOCC2)s1 (stereo not shown) | 8.591%
* CS(=O)(=O)NC[C@H]1Cn2c(-c3ccc4c(c3)OCCO4)cnc2CO1 | 5.763%
* CS(=O)(=O)NC1CCCN(C(=O)Nc2cccnc2)C1 (stereo not shown) | 15.47%
* CN(C)CCNc1ccc(-c2nc(-c3ccccc3F)no2)cn1 | 7.474%
* Cc1noc([C@@H]2C[C@H](NC(=O)Nc3ccccc3)CN2C)n1 | -1.695%
* Fc1cccnc1Oc1cc(F)c(CN2CCCC2)c(Cl)c1 | 9.657%
* O=C(c1ccc(F)c(F)c1)N1C[C@H]2CNC[C@H]2C1 | 7.222%
* CCc1nc(Cn2ccnc2-c2nccn2C)no1 | 5.16%
* Cc1nccc([C@@H]2C[C@@H]3CCN(S(=O)(=O)N(C)C)C[C@H]3O2)n1 | 13.2%
* Cc1ccc(N(C)C2CCN(C(=O)CCc3ccco3)CC2)nn1 | 28.25%

Some entries from above, unchanged:

With O=C(c1ccc(F)c(F)c1)N1C[C@H]2CNC[C@H]2C1 the screen gave 7.222%.
With O=C1NCCN1C(CNS(=O)(=O)C1CC1)Cc1cccc(F)c1 (stereo not shown) the screen gave 19.83%.
With CN1CCCC2(CCN(S(=O)(=O)c3ccc(-c4cnco4)s3)C2)C1=O (stereo not shown) the screen gave 23.03%.
With CC[C@H]1CN2CC[C@H]1C[C@@H]2CNC(=O)Nc1cccc(C#N)c1 the screen gave 8.791%.
With CS(=O)(=O)NC1CCCN(C(=O)Nc2cccnc2)C1 (stereo not shown) the screen gave 15.47%.

Source: ChEMBL document CHEMBL3988442, “University of Dundee, Small-Polar-MMV Screening Library” (2021).